Reference: publication PMC4183429
These are yes or no findings as the source states them, for the method shown. In cells and extracts the contact can be indirect. Some binding calls cover weakened binding; strength is not graded here.

By UniProt entry, the sequences of proteins in these tests, tags left out.
UniProt P32447: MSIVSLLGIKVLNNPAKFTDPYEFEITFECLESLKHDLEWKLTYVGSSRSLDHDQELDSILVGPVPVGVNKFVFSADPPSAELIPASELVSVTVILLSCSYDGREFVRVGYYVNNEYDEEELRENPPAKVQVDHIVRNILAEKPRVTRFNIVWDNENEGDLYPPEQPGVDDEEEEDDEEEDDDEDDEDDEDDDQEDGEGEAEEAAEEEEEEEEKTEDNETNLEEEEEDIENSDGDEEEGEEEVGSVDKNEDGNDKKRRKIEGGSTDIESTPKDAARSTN
UniProt P22216: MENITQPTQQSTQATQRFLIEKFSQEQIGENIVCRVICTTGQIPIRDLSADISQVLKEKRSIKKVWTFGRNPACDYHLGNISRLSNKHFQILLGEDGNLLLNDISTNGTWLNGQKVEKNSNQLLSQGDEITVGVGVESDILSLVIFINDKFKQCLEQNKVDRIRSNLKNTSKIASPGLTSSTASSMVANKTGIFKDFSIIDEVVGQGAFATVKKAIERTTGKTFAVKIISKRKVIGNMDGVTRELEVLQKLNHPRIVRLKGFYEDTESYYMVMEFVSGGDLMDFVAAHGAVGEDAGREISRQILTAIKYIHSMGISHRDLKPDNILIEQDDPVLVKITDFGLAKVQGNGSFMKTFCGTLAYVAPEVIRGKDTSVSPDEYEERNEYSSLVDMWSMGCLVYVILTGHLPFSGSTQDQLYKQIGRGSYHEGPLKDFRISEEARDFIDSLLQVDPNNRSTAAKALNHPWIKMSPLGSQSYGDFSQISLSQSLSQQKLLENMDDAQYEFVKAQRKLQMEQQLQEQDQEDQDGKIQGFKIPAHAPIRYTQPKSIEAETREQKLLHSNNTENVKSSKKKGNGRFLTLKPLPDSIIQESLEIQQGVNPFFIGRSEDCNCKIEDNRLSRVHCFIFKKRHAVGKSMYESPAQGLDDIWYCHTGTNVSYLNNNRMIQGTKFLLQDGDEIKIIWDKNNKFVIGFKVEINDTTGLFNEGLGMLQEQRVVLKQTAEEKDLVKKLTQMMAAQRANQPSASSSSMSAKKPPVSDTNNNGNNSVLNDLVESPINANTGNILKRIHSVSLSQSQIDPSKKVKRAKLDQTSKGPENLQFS

Target: Asf1-3×HA (S. cerevisiae) (UniProt P32447)
Test: co-IP; anti-HA-protein G beads precipitate Asf1-3×HA from 5 mg protein extract of WT or htb-K123R cells, untreated or treated with 0.2M HU for 90 minutes; 50 mM Tris 7.5, 150 mM NaCl, 5 mM EDTA, 0.5% Triton X-100; 4°C; blot with anti-Rad53

In the case of Rad53 (from UniProt P22216 1-821), the binding is reported as “binds”.
